Data on two substances can be found in publication PMC10605449 (Biosensors, 2023).

Sequences of proteins named here, by UniProt entry; tags and fusion partners are left off. A change or cut given only in a name is not applied to a line headed by its entry.
UniProt Q9Y265: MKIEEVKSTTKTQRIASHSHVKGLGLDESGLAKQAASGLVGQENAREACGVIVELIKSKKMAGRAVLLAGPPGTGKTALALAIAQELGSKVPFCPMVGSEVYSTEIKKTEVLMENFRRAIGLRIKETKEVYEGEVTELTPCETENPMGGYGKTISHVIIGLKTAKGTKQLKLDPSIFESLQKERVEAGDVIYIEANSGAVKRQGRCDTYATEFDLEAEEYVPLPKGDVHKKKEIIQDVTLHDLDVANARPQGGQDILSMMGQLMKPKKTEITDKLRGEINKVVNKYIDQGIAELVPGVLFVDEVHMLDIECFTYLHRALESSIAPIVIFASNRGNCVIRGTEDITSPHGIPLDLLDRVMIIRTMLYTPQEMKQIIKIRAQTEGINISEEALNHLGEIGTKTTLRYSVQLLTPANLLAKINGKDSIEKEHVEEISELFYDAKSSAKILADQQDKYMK

No constants are given. Whether binding was seen depends on the method and setting. Some entries that bind do so weakly or less than the wild type. Where a sequence is shown, tags or fusion partners need not be part of it.

Test [1] has as its target T1, Cellular biotinylated H/ACA ribonucleoprotein complex subunit Dyskerin pseudouridine synthase 1, His6-DKC1(1-514)-AviTag (UniProt O60832).
T1 sequence (chain, biotin on the AviTag (BirA, in the cells)): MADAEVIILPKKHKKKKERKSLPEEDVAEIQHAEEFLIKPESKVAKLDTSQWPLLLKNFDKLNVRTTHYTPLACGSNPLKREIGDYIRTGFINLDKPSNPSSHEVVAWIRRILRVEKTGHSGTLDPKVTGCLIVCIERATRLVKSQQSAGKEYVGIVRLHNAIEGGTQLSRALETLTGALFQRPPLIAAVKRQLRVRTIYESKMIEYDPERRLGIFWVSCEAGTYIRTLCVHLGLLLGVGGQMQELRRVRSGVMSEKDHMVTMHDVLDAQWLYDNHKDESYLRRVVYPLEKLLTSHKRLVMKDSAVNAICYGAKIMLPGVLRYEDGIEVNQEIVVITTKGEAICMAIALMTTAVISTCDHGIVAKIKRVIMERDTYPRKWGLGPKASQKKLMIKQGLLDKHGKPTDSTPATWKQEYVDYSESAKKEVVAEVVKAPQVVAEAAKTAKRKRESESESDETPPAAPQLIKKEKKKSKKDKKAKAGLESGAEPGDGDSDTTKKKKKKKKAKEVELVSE
The experiment in a line: SPR; data not shown; as a5, injection of the ATP hydrolysis mutant complex over DKC1(1-514) captured from lysate; only the binder purified. (In general: In SPR one partner is held on a chip, and binding of the other changes the refractive index at the surface.)

The target of test [2] is T1, Cellular biotinylated H/ACA ribonucleoprotein complex subunit Dyskerin pseudouridine synthase 1, His6-DKC1(1-514)-AviTag. The experiment in a line: SPR; data not shown; as a5, in the presence of saturating concentrations of the non-hydrolysable ATPγS; only the binder purified.

As for “His6-RuvBL1_D302N/RuvBL2_D299N (from UniProt Q9Y265 1-456; Q9Y230 1-463) (complex)”, the binding result in test [1] is listed as “binds”.
As to “His6-RuvBL1(1-456)/RuvBL2(1-463) (from UniProt Q9Y265 1-456; Q9Y230 1-463) (complex)”, in test [2], the binding entry is recorded as “binds”.
